No constants are given. Whether binding was seen depends on the method and setting. In cells and extracts the contact can be indirect. Some binding calls cover weakened binding; strength is not graded here. For some of these results: Where a sequence is shown, tags or fusion partners need not be part of it. Each block holds one binder with its values, some of them ahead of it.
Assays:
[1] = target: gp96 endogenous in cultured cell lines (HeLa, HL-60, 293) (Homo sapiens (Human)) (UniProt P14625); assay: pull-down of HeLa cell lysate with purified GST-AIMP1 fragments, Western blot with anti-gp96 antibody
[2] = target: gp96 from mouse pancreas protein extract (mouse) (UniProt P08113); assay: pull-down from mouse pancreas extract with biotin-conjugated AIMP1, Western blot with anti-gp96 antibody (FIG. 2)
[3] = target: gp96 endogenous in cultured cell lines (HeLa, HL-60, 293) (Homo sapiens (Human)) (UniProt P14625); assay: co-immunoprecipitation with anti-gp96 antibody from lysate of HL-60 cells transfected with an AIMP1-encoding plasmid
[4] = target: gp96 from mouse pancreas protein extract (mouse) (UniProt P08113); assay: pull-down from mouse pancreas extract with GST-AIMP1, Western blot with anti-gp96 antibody (FIG. 3)

Sequences of proteins named here, by UniProt entry; tags and fusion partners are left off. A change or cut given only in a name is not applied to a line headed by its entry. Residues count along the entry.
UniProt P14625: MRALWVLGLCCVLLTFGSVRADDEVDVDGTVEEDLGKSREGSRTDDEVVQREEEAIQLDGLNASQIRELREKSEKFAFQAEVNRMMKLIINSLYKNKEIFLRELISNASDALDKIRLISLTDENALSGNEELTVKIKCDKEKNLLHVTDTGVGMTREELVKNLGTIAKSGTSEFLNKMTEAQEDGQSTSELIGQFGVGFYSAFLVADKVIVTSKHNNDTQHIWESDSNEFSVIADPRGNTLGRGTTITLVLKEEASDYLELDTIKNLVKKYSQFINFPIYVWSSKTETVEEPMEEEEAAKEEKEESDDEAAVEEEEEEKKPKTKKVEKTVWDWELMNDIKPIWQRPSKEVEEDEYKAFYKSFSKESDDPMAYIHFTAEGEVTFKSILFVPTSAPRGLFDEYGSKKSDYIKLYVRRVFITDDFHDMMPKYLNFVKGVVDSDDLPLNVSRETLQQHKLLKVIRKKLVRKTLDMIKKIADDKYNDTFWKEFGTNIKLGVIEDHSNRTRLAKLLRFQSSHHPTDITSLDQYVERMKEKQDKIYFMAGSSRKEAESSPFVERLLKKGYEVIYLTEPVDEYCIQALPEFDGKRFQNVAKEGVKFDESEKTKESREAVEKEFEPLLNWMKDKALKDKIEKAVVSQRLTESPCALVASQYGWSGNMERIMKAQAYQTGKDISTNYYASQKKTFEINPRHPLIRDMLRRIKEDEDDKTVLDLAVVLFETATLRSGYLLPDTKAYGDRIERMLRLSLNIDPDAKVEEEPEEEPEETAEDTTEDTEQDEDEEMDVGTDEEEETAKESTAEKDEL
UniProt P08113, residues 22-802: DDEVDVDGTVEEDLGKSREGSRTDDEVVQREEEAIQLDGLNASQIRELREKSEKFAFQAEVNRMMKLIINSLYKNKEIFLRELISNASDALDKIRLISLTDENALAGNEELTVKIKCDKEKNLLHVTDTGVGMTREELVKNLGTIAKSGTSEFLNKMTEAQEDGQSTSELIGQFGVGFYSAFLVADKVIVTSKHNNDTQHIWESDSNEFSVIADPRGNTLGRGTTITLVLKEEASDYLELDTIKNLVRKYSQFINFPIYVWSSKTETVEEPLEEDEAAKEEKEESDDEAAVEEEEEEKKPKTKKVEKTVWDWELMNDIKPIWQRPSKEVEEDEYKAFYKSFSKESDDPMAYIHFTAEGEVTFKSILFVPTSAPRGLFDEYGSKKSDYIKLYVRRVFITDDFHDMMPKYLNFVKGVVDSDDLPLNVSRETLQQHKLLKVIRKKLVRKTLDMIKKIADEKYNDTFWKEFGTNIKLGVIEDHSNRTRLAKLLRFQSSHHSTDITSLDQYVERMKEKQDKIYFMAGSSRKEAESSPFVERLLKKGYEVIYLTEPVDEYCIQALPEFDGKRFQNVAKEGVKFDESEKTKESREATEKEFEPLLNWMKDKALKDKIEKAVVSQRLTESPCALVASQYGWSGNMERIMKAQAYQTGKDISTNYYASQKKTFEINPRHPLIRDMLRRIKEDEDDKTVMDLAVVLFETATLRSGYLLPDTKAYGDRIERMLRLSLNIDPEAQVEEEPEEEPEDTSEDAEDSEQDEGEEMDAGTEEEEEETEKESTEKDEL

binding [1]: binds
B1: GST-AIMP1-(54-192) (protein, not shown: a dimerising Fc or GST)
chain: KLKKEIEELKQELIQAEIQNGVKQIAFPSGTPLHANSMVSENVIQSTAVTTVSSGTKEQIKGGTGDEKKAKEKIEKKGEKKEKKQQSIAGSADSKPIDVSRLDLRIGCIITARKHPDADSLYVEEVDVGEIAPRTVVSG

binding [2]: binds
B2: biotin-conjugated recombinant AIMP1 protein (protein)
chain: MANNDAVLKRLEQKGAEADQIIEYLKQQVSLLKEKAILQATLREEKKLRVENAKLKKEIEELKQELIQAEIQNGVKQIAFPSGTPLHANSMVSENVIQSTAVTTVSSGTKEQIKGGTGDEKKAKEKIEKKGEKKEKKQQSIAGSADSKPIDVSRLDLRIGCIITARKHPDADSLYVEEVDVGEIAPRTVVSGLVNHVPLEQMQNRMVILLCNLKPAKMRGVLSQAMVMCASSPEKIEILAPPNGSVPGDRITFDAFPGEPDKELNPKKKIWEQIQPDLHTNDECVATYKGVPFEVKGKGVCRAQTMSNSGIK
modifications: conjugated to biotin with sulfo-biotin reagent (sites not given)

binding [3]: binds
B3: AIMP1 expressed in cells transfected with an AIMP1-encoding plasmid (protein)
chain: MANNDAVLKRLEQKGAEADQIIEYLKQQVSLLKEKAILQATLREEKKLRVENAKLKKEIEELKQELIQAEIQNGVKQIAFPSGTPLHANSMVSENVIQSTAVTTVSSGTKEQIKGGTGDEKKAKEKIEKKGEKKEKKQQSIAGSADSKPIDVSRLDLRIGCIITARKHPDADSLYVEEVDVGEIAPRTVVSGLVNHVPLEQMQNRMVILLCNLKPAKMRGVLSQAMVMCASSPEKIEILAPPNGSVPGDRITFDAFPGEPDKELNPKKKIWEQIQPDLHTNDECVATYKGVPFEVKGKGVCRAQTMSNSGIK

binding [4]: binds
B4: GST-AIMP1 (protein, not shown: a dimerising Fc or GST)
chain: MANNDAVLKRLEQKGAEADQIIEYLKQQVSLLKEKAILQATLREEKKLRVENAKLKKEIEELKQELIQAEIQNGVKQIAFPSGTPLHANSMVSENVIQSTAVTTVSSGTKEQIKGGTGDEKKAKEKIEKKGEKKEKKQQSIAGSADSKPIDVSRLDLRIGCIITARKHPDADSLYVEEVDVGEIAPRTVVSGLVNHVPLEQMQNRMVILLCNLKPAKMRGVLSQAMVMCASSPEKIEILAPPNGSVPGDRITFDAFPGEPDKELNPKKKIWEQIQPDLHTNDECVATYKGVPFEVKGKGVCRAQTMSNSGIK

From patent US20100138941A1
